# Assay results from the supplement of paper PMC11006884.
# Chains of the proteins cited; added tags and fusions are not shown. Lines headed by an entry give the natural chain unless they say otherwise; changes in a name come on top.
# UniProt P33981: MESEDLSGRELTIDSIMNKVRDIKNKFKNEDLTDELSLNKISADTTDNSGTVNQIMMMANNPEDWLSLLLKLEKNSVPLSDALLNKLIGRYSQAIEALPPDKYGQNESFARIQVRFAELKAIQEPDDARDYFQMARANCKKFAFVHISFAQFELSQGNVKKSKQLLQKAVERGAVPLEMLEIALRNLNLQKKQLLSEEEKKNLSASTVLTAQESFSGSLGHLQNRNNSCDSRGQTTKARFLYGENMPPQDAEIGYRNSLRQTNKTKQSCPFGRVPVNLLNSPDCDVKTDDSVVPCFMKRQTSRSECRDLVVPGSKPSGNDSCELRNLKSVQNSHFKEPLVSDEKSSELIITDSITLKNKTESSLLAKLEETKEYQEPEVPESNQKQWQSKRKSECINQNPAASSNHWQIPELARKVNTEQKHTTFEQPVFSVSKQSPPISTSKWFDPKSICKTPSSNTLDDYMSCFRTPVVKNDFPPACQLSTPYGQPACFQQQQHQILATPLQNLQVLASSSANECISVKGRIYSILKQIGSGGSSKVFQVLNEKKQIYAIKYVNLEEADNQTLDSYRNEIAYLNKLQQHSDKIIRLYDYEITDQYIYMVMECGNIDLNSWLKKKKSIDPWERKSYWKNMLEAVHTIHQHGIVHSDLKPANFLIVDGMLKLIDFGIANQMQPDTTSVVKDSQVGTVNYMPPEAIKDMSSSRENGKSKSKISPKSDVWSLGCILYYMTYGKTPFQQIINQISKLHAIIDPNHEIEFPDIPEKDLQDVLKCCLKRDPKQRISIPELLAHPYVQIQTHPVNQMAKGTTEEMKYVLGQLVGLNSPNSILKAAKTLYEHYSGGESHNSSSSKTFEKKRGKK
# UniProt P41440: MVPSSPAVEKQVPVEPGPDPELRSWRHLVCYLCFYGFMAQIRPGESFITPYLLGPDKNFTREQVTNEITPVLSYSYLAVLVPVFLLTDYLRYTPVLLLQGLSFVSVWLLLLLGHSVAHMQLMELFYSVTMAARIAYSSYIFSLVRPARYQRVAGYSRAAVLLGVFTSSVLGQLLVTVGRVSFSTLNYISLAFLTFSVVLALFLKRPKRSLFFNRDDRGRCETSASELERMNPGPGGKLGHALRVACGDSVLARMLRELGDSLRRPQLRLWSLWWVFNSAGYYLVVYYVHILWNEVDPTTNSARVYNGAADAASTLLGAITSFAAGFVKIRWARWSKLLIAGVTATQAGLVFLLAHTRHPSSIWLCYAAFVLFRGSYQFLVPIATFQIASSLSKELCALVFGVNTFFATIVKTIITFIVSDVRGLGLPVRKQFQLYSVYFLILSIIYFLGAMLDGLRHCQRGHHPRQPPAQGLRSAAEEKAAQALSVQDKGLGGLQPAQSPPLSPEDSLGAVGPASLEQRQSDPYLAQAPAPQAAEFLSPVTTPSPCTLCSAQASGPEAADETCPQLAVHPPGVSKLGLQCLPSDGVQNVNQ
# UniProt P33992: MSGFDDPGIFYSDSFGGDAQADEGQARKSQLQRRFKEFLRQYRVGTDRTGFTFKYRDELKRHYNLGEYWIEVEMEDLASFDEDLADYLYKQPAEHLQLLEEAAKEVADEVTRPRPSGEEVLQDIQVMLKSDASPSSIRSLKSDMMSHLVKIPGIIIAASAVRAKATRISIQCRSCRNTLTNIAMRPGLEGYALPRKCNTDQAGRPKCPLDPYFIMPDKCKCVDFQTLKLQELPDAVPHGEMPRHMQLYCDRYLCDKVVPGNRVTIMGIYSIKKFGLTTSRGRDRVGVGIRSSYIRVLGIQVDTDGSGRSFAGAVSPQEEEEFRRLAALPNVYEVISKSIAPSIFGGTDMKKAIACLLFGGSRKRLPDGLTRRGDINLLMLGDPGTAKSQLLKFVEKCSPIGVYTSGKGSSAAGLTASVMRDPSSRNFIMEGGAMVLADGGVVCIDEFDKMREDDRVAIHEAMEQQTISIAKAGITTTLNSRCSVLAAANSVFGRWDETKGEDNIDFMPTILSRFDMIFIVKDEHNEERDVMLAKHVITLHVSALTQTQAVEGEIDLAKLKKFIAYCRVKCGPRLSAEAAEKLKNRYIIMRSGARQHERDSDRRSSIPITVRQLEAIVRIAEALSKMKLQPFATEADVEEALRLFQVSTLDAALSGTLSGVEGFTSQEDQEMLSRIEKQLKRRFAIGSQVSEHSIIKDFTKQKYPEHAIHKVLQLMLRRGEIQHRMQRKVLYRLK
# UniProt P41252: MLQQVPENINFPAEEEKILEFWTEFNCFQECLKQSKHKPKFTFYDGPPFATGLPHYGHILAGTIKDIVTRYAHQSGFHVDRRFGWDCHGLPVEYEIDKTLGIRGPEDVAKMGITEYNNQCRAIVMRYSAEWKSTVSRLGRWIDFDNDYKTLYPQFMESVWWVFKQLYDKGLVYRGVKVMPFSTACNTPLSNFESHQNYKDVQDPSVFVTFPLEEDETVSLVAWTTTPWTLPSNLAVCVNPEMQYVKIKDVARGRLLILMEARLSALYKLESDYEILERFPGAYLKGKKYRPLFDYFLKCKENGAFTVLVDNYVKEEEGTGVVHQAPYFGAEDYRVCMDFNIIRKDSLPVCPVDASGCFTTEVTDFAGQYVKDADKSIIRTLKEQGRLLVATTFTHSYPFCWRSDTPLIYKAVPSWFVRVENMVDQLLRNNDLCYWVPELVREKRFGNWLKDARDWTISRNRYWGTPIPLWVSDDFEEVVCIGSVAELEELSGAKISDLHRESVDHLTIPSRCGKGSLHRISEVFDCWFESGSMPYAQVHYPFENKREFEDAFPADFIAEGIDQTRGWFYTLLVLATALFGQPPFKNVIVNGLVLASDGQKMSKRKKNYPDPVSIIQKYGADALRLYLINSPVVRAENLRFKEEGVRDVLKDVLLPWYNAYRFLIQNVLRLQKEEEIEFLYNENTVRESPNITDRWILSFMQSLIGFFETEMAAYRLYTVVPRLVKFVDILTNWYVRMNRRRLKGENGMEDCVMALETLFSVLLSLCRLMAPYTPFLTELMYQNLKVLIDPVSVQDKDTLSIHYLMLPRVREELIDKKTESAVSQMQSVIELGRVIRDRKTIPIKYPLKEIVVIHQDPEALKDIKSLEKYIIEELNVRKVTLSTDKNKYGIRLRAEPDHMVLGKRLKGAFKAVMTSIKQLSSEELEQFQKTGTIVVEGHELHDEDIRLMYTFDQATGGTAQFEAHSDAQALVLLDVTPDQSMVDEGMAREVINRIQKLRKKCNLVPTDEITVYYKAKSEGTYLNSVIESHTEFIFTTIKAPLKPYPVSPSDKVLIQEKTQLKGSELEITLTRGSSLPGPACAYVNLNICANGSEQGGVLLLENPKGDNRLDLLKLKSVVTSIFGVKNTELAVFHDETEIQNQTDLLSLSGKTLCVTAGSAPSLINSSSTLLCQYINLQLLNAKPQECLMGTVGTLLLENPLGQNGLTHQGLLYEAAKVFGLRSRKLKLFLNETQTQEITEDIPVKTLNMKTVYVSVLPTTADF
# UniProt P34897: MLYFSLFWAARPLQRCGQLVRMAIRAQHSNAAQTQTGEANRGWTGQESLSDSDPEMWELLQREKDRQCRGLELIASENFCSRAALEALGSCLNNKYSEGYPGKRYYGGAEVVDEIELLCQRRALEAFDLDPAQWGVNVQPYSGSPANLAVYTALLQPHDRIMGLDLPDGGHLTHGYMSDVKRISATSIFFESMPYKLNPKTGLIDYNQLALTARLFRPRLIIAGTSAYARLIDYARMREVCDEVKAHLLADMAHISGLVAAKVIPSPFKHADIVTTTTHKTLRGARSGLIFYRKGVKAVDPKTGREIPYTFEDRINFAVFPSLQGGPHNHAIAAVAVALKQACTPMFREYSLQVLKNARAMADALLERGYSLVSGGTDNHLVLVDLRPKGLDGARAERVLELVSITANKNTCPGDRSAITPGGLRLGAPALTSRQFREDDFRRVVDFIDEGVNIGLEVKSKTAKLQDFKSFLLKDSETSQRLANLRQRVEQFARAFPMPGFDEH
# UniProt P30153, whole entry, looked up: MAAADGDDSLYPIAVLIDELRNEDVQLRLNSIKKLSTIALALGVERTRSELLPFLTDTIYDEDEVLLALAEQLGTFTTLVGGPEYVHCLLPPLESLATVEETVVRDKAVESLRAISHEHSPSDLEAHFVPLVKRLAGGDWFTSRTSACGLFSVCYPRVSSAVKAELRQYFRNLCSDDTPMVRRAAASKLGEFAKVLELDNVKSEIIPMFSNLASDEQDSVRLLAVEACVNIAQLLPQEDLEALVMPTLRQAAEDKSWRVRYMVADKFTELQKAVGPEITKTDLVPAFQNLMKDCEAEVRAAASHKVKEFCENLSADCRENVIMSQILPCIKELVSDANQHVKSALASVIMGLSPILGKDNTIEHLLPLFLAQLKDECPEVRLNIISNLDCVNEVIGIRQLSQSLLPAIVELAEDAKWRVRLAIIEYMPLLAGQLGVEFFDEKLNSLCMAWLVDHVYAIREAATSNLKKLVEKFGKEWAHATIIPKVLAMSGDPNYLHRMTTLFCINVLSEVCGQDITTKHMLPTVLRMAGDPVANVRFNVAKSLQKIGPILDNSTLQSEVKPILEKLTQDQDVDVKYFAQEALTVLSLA
# UniProt P30520: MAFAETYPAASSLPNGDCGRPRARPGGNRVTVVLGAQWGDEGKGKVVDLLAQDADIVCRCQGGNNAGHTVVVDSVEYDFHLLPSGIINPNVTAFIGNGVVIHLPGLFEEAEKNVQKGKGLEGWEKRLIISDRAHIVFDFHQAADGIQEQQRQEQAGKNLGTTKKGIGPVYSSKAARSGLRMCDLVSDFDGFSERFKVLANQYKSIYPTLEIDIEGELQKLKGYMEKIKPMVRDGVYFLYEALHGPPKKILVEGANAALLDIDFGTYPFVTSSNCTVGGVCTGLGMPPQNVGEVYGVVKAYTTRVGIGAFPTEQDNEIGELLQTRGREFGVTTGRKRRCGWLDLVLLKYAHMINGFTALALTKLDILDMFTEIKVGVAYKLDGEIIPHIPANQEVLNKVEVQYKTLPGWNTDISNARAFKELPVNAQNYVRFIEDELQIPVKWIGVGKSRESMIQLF
# UniProt P42765: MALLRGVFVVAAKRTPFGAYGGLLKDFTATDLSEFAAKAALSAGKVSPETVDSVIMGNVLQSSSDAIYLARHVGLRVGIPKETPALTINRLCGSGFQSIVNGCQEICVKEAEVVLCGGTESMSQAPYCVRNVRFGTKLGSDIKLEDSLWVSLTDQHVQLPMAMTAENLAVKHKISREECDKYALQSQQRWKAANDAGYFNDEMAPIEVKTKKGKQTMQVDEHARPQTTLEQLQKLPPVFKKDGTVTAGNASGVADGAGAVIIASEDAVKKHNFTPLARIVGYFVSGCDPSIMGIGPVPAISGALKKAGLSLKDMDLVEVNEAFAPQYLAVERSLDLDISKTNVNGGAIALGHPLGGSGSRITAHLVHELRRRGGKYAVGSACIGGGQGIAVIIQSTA
# UniProt P35244: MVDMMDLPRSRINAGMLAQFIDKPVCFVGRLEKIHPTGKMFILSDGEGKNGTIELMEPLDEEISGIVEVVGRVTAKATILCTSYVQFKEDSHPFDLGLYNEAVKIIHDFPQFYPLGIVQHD
# UniProt P35659: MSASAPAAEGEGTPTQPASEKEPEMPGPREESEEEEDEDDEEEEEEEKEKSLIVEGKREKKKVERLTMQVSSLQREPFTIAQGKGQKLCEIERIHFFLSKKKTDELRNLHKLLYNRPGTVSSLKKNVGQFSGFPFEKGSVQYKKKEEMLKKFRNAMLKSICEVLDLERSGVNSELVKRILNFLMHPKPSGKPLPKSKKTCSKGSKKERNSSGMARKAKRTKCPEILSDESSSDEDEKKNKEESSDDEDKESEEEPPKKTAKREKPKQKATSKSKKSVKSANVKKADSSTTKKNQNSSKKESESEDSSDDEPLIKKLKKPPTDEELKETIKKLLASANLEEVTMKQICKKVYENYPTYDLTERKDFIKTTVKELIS
# UniProt P30405: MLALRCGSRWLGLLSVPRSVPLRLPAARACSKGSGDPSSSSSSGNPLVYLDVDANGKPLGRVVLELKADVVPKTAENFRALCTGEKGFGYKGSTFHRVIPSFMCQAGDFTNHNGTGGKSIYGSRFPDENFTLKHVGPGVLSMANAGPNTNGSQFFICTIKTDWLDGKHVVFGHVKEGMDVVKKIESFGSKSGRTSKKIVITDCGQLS
# UniProt P42574: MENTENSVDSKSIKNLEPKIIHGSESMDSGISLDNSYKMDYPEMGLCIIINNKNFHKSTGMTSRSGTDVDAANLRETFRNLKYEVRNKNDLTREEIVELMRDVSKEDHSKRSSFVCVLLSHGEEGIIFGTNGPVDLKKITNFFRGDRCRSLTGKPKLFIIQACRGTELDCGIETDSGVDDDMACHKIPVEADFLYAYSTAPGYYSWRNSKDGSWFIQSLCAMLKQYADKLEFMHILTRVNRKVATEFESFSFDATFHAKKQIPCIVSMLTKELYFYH
# UniProt P42771, whole entry: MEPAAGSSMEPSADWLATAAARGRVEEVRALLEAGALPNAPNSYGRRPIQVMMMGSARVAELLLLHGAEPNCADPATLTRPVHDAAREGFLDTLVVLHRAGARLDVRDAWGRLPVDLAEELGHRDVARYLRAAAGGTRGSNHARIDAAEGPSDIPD
# Only a part is listed here, and it is no random draw.
# Compound: COC(=O)C#Cc1ccccc1 [methyl 3-phenylpropiolate]
# Experiment: log2 ratio of iodoacetamide-alkyne labeling of the cysteine site, DMSO over compound (competition); higher = stronger covalent engagement of the cysteine by the compound, active = 1 or more
# Details: 500 µM; treatment time 1 h; system: HEK293T cell lysate
# In short: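 The log2 competition ratio per cysteine is defined as mean reporter intensity in control channels over mean reporter intensity in compound channels. Lysate from HEK293T cells (2 mg/mL) received electrophile (500 µM) or vehicle for 1 h at ambient temperature, followed by iodoacetamide alkyne for 1 h. Samples were clicked to sCIP-TMT reagents, pooled, trypsin-digested overnight at 37 °C, streptavidin-enriched, acid-eluted and run on Orbitrap Eclipse LC-MS/MS with FAIMS, with quantification in FragPipe. Three replicates with duplicate channels were used, and any cysteine quantified in only one replicate was excluded.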
row,Target,log2 ratio of iodoacetamide-alkyne labeling
1,GLRX C8 (UniProt P35754),inactive: 0.315
2,MYH9 C1379 (UniProt P35579),inactive: 0.164
3,TTK C284 (UniProt P33981),inactive: 0.53
4,UniProt P42677_C77,active: 1.73
5,MAT2A C104 (UniProt P31153),inactive: 0.274
6,SLC19A1 C580 (UniProt P41440),inactive: 0.634
7,MCM5 C221 (UniProt P33992),inactive: 0.195
8,MDH2 C89 (UniProt P40926),inactive: 0.21
9,TAGLN2 C124 (UniProt P37802),inactive: 0.482
10,IARS C185 (UniProt P41252),inactive: 0.162
11,LRPPRC C500 (UniProt P42704),inactive: 0.141
12,SHMT2 C91 (UniProt P34897),inactive: 0.316
13,STIP1 C26 (UniProt P31948),inactive: -0.083
14,SHMT2 C412 (UniProt P34897),inactive: 0.124
15,PSMC2 C377 (UniProt P35998),inactive: 0.299
16,RFC2 C7 (UniProt P35250),inactive: 0.344
17,PPP2R1A C154 (UniProt P30153),inactive: 0.637
18,UniProt P30520_C182,inactive: 0.102
19,ACAA2 C179 (UniProt P42765),inactive: 0.624

row,Target,log2 ratio of iodoacetamide-alkyne labeling
1,LONP1 C682 (UniProt P36776),inactive: 0.203
2,ABCC1 C730 (UniProt P33527),inactive: 0.332
3,RPA3 C26 (UniProt P35244),inactive: -0.139
4,IARS C1001 (UniProt P41252),inactive: 0.597
5,DEK C200 (UniProt P35659),inactive: 0.718
6,EIF2S3 C105 (UniProt P41091),inactive: 0.341
7,PPIF C104 (UniProt P30405),inactive: 0.467
8,AGL C767 (UniProt P35573),inactive: 0.21
9,LRPPRC C1277 (UniProt P42704),inactive: 0.0468
10,SHMT2 C80 (UniProt P34897),inactive: -0.139
11,LRPPRC C1043 (UniProt P42704),inactive: 0.0996
12,FEN1 C311 (UniProt P39748),inactive: 0.155
13,CASP3 C184 (UniProt P42574),inactive: 0.259
14,ACAA2 C116 (UniProt P42765),active: 1.22
15,ABL2 C999 (UniProt P42684),inactive: 0.219
16,UniProt P42771_C72,inactive: 0.243
17,MCM4 C212 (UniProt P33991),inactive: 0.507
18,TMPO C518 (UniProt P42166),inactive: 0.44

# An excerpt of these results, with bars between the fields.
row | Target | log2 ratio of iodoacetamide-alkyne labeling
5 | MAT2A C104 (UniProt P31153) | inactive: 0.274
6 | SLC19A1 C580 (UniProt P41440) | inactive: 0.634
14 | SHMT2 C412 (UniProt P34897) | inactive: 0.124
1 | LONP1 C682 (UniProt P36776) | inactive: 0.203
5 | DEK C200 (UniProt P35659) | inactive: 0.718
9 | LRPPRC C1277 (UniProt P42704) | inactive: 0.0468
12 | FEN1 C311 (UniProt P39748) | inactive: 0.155
14 | ACAA2 C116 (UniProt P42765) | active: 1.22
16 | UniProt P42771_C72 | inactive: 0.243
